Laboratory results from the supplement of paper PMC12823440, “Inhibitors supercharge kinase turnover through native proteolytic circuits” (Nature, 2025).
Where a name gives a salt, the structure may show the parent alone. The list shows a part of the results. Hit calls seldom repeat between salt and free forms of one compound.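 In K562 cells expressing nanoluciferase-fused kinases, luminescence was recorded at 4 h intervals between 2 and 18 h, normalized as percent of control with DMSO at 100% and a positive control at 0%. A significant (2 sigma) signal drop marks a time point as decreased. The authors' rule for a hit is not shown and takes in more than the number of time points.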

Amino acid sequences for entries named in this document (tags omitted). A change or cut given only in a name is not applied to a line headed by its entry.
UniProt P50613: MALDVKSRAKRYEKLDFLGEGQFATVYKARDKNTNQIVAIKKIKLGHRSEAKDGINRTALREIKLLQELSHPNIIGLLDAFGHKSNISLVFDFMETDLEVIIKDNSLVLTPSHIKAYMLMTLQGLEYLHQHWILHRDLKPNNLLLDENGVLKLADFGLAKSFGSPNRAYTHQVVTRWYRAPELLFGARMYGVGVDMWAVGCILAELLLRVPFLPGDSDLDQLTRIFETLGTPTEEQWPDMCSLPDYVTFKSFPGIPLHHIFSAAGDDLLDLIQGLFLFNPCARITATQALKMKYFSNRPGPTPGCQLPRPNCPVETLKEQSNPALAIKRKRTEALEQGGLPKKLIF
UniProt P50750, whole entry: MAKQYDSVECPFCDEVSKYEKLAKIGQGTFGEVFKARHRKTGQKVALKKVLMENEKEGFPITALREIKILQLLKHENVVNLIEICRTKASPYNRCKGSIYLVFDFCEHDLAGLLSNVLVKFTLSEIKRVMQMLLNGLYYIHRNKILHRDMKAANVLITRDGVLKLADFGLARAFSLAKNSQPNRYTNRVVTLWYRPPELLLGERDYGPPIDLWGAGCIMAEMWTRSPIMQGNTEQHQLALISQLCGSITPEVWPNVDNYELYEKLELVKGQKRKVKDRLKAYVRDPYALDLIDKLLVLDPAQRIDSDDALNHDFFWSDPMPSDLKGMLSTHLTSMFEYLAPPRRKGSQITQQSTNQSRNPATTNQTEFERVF
UniProt O96017, whole entry: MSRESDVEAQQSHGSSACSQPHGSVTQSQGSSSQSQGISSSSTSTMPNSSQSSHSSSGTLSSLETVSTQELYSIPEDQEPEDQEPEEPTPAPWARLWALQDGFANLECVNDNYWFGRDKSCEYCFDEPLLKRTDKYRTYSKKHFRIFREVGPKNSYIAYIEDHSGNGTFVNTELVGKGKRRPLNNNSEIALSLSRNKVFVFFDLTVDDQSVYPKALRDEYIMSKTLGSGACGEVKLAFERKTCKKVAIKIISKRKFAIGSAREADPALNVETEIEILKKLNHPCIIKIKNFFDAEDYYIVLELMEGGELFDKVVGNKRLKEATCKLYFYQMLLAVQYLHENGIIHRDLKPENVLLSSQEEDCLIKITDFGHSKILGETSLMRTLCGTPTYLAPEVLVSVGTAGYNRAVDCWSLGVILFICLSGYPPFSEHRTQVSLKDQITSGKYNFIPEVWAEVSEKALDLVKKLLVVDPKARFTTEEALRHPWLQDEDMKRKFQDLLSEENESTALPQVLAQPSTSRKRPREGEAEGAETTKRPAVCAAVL
UniProt P07333, whole entry: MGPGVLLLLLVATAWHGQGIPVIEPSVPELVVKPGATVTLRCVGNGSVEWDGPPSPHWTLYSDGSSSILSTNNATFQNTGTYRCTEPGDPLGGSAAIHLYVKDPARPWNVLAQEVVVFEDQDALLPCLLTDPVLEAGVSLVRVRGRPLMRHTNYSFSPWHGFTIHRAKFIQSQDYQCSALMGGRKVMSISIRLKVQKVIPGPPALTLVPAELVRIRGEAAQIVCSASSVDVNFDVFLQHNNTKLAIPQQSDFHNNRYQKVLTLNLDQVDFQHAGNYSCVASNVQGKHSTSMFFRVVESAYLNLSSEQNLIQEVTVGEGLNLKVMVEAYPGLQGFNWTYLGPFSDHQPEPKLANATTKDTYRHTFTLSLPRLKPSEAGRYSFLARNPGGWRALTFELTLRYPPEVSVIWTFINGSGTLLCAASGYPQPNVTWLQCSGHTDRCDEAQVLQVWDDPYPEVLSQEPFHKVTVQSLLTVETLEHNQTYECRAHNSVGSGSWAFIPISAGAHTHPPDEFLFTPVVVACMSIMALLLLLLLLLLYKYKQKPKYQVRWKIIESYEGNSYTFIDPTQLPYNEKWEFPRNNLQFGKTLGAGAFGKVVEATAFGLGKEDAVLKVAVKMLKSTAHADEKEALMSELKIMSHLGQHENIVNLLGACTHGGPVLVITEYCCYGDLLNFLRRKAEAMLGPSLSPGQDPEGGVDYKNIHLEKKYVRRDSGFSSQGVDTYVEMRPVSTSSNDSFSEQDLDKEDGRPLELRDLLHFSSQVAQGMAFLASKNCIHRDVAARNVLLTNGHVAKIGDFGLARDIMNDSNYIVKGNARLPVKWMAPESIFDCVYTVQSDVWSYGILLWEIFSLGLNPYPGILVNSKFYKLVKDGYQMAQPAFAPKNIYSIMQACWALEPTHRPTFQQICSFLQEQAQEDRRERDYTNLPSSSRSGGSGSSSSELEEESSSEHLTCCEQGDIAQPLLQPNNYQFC
UniProt P41240: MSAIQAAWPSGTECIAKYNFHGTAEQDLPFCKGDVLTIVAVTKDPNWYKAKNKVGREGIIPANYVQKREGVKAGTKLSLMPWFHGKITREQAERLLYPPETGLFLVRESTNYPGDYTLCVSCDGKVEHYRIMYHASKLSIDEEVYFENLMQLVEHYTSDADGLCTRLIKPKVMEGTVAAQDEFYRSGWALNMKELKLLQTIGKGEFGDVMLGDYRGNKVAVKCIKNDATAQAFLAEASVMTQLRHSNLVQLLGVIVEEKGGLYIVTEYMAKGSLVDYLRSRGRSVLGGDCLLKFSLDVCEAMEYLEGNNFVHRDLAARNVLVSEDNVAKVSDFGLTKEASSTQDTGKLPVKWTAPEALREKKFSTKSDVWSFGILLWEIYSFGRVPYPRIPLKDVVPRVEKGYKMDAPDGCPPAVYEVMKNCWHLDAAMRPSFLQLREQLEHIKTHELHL
UniProt P48729: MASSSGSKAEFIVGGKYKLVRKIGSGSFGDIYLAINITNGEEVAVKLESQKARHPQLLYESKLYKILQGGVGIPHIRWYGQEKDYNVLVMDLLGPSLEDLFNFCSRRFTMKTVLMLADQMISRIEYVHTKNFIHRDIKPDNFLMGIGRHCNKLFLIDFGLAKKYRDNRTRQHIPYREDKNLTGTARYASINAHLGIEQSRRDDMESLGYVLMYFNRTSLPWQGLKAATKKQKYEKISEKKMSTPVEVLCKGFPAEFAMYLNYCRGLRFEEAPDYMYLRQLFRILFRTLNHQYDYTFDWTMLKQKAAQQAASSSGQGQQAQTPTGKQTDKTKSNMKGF
UniProt Q92630: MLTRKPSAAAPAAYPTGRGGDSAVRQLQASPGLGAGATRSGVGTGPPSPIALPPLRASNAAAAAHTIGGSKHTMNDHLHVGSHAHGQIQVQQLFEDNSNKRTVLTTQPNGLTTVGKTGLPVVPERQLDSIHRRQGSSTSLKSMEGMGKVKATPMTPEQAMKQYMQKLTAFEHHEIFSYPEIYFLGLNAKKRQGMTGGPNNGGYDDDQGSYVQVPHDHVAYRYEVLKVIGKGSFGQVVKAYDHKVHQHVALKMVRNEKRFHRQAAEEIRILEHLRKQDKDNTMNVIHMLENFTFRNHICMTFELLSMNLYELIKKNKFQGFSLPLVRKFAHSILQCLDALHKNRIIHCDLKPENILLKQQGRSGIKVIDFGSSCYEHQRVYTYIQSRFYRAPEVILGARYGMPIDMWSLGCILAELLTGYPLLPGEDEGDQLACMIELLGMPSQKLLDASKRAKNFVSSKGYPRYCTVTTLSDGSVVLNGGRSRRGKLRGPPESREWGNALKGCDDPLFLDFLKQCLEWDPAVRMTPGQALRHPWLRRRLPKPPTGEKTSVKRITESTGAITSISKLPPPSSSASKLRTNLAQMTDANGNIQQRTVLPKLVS
UniProt P21860, whole entry: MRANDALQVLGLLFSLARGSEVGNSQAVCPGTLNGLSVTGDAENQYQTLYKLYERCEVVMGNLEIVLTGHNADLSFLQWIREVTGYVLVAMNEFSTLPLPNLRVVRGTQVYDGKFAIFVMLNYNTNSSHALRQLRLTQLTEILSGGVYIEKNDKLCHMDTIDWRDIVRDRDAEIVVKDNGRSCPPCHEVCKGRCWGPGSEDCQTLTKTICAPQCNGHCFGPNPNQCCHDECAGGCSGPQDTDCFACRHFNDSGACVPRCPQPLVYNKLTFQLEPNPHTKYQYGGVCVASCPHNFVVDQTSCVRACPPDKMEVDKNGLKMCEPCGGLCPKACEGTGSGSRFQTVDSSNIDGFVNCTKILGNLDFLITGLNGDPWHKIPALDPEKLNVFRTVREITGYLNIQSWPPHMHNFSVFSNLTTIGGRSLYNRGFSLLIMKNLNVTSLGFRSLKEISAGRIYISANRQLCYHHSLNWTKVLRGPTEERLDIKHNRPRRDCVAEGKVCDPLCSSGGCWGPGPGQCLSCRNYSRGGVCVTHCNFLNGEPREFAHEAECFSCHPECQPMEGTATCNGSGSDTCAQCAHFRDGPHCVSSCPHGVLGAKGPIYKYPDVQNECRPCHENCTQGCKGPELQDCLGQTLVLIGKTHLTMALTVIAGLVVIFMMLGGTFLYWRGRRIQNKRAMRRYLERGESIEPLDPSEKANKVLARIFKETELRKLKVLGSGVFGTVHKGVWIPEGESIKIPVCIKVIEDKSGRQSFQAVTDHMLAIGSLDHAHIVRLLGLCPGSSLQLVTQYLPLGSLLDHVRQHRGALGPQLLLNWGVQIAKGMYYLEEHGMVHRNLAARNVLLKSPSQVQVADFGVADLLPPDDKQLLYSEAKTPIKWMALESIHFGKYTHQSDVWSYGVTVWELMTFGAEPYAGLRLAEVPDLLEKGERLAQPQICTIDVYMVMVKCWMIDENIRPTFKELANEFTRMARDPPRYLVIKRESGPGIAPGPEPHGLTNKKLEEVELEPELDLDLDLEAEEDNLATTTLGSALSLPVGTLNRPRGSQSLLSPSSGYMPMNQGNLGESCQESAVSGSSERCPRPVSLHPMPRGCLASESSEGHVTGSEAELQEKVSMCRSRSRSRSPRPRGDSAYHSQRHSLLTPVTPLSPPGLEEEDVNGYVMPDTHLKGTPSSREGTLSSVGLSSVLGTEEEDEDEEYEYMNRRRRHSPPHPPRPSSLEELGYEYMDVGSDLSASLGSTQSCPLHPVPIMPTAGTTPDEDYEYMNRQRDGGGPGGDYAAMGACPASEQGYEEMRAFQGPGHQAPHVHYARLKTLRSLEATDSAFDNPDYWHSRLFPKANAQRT
UniProt Q15303, whole entry R711C: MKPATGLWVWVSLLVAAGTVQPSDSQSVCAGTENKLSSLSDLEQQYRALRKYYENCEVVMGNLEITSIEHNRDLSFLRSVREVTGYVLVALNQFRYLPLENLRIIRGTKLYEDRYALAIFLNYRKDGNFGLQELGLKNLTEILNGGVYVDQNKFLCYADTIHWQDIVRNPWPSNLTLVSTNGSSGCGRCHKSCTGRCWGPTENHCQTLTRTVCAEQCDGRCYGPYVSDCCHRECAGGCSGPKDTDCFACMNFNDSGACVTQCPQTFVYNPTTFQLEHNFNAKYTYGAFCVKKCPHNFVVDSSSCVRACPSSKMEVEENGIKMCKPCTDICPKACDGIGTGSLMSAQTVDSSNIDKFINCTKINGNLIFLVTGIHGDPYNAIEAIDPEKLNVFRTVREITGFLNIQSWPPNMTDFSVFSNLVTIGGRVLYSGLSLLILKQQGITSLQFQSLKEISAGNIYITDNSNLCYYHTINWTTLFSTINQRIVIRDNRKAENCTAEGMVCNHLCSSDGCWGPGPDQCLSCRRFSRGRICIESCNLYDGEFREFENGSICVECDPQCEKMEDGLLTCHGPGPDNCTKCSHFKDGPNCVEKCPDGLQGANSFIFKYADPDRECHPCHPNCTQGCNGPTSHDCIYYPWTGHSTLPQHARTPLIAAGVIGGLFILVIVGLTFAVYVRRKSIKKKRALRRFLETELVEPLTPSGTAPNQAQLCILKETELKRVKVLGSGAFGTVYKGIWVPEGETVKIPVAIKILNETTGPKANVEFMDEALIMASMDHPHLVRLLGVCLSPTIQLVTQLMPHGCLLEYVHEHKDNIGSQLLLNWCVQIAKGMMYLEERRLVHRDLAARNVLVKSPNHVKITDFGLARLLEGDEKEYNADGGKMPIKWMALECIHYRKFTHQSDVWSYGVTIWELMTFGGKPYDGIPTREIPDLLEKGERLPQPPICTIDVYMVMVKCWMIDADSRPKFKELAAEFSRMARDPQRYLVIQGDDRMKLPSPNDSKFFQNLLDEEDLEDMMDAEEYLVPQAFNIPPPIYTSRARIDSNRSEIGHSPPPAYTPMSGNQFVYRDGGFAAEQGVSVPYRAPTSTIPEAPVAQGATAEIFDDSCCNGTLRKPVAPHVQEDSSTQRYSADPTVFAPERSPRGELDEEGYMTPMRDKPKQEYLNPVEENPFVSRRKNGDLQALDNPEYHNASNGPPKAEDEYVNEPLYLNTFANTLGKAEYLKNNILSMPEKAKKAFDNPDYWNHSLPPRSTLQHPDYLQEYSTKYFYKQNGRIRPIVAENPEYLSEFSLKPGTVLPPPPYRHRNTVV

Key:
Test in all cases: kinase-Nluc reporter destabilization hit call (1 = scored as downregulated) (binary); higher = compound decreases kinase abundance
Conditions in all cases: K562; 2-18 h
[1] = target: CDK7 (UniProt P50613)
[2] = target: CDK9 (UniProt P50750)
[3] = target: CHEK2 (UniProt O96017)
[4] = target: CSF1R (UniProt P07333)
[5] = target: CSK (UniProt P41240)
[6] = target: CSNK1A1 (UniProt P48729)
[7] = target: CSNK1D (UniProt P48730)
[8] = target: DDR1 (UniProt Q08345)
[9] = target: DYRK1B (UniProt Q9Y463)
[10] = target: DYRK2 (UniProt Q92630)
[11] = target: EGFR (UniProt P00533)
[12] = target: EGFR_G719S (UniProt P00533)
[13] = target: EGFR_G719S_T790M (UniProt P00533)
[14] = target: EGFR_L718V (UniProt P00533)
[15] = target: EGFR_L858R (UniProt P00533)
[16] = target: EGFR_L861Q (UniProt P00533)
[17] = target: EGFR_T790M (UniProt P00533)
[18] = target: EPHA2 (UniProt P29317)
[19] = target: ERBB3 (UniProt P21860)
[20] = target: ERBB4_R711C (clone: ERBB4_mut) (UniProt Q15303)

Row | Compound | kinase-Nluc reporter destabilization hit call [1] | kinase-Nluc reporter destabilization hit call [2] | kinase-Nluc reporter destabilization hit call [3] | kinase-Nluc reporter destabilization hit call [4] | kinase-Nluc reporter destabilization hit call [5] | kinase-Nluc reporter destabilization hit call [6] | kinase-Nluc reporter destabilization hit call [7] | kinase-Nluc reporter destabilization hit call [8] | kinase-Nluc reporter destabilization hit call [9] | kinase-Nluc reporter destabilization hit call [10] | kinase-Nluc reporter destabilization hit call [11] | kinase-Nluc reporter destabilization hit call [12] | kinase-Nluc reporter destabilization hit call [13] | kinase-Nluc reporter destabilization hit call [14] | kinase-Nluc reporter destabilization hit call [15] | kinase-Nluc reporter destabilization hit call [16] | kinase-Nluc reporter destabilization hit call [17] | kinase-Nluc reporter destabilization hit call [18] | kinase-Nluc reporter destabilization hit call [19] | kinase-Nluc reporter destabilization hit call [20]
1 | Cn1cnc2c(F)c(Nc3ccc(Br)cc3Cl)c(C(=O)NOCCO)cc21 [Selumetinib (sulfate)] (10 µM) | inactive: 0 | inactive: 0 | inactive: 0 | inactive: 0 | inactive: 0 | inactive: 0 | inactive: 0 | inactive: 0 | inactive: 0 | inactive: 0 | inactive: 0 | inactive: 0 | inactive: 0 | inactive: 0 | inactive: 0 | inactive: 0 | inactive: 0 | inactive: 0 | inactive: 0 | inactive: 0
2 | C[C@@H]1COCCN1c1cc(C2([S@@](C)(=N)=O)CC2)nc(-c2ccnc3[nH]ccc23)n1 [(S)-Ceralasertib] (10 µM) | inactive: 0 | inactive: 0 | inactive: 0 | inactive: 0 | inactive: 0 | inactive: 0 | inactive: 0 | inactive: 0 | inactive: 0 | inactive: 0 | inactive: 0 | inactive: 0 | inactive: 0 | inactive: 0 | inactive: 0 | inactive: 0 | inactive: 0 | inactive: 0 | inactive: 0 | inactive: 0
3 | Cn1nccc1Nc1nccc(-c2ccn([C@H](CO)c3ccc(Cl)c(F)c3)c(=O)c2)n1 [Ravoxertinib] (10 µM) | inactive: 0 | inactive: 0 | inactive: 0 | inactive: 0 | inactive: 0 | inactive: 0 | inactive: 0 | inactive: 0 | inactive: 0 | inactive: 0 | inactive: 0 | inactive: 0 | inactive: 0 | inactive: 0 | inactive: 0 | inactive: 0 | inactive: 0 | inactive: 0 | inactive: 0 | inactive: 0
4 | C[C@@H]1CC[C@@H](Nc2nc(NC(C)(C)C)ncc2C(N)=O)C[C@H]1O (10 µM) | inactive: 0 | inactive: 0 | inactive: 0 | inactive: 0 | inactive: 0 | inactive: 0 | inactive: 0 | inactive: 0 | inactive: 0 | inactive: 0 | inactive: 0 | inactive: 0 | inactive: 0 | inactive: 0 | inactive: 0 | inactive: 0 | inactive: 0 | inactive: 0 | inactive: 0 | inactive: 0
5 | c1cncc(CN2CCC(n3ncc4c(N5CCOCC5)nc(-c5ccc6[nH]ccc6c5)nc43)CC2)c1 (10 µM) | inactive: 0 | inactive: 0 | inactive: 0 | inactive: 0 | inactive: 0 | inactive: 0 | inactive: 0 | inactive: 0 | inactive: 0 | inactive: 0 | inactive: 0 | inactive: 0 | inactive: 0 | inactive: 0 | inactive: 0 | inactive: 0 | inactive: 0 | inactive: 0 | inactive: 0 | inactive: 0
6 | COc1cc2nccc(Oc3ccc(NC(=O)NC4CC4)c(Cl)c3)c2cc1C(N)=O [Lenvatinib (mesylate)] (10 µM) | inactive: 0 | inactive: 0 | inactive: 0 | inactive: 0 | inactive: 0 | inactive: 0 | inactive: 0 | inactive: 0 | inactive: 0 | inactive: 0 | inactive: 0 | inactive: 0 | inactive: 0 | inactive: 0 | inactive: 0 | inactive: 0 | inactive: 0 | inactive: 0 | inactive: 0 | inactive: 0
7 | Nc1cc(C(F)(F)F)c(-c2cc(N3CCOCC3)nc(N3CCOCC3)n2)cn1 [Buparlisib (Hydrochloride)] (2.5 µM) | inactive: 0 | inactive: 0 | inactive: 0 | inactive: 0 | inactive: 0 | inactive: 0 | inactive: 0 | inactive: 0 | inactive: 0 | inactive: 0 | inactive: 0 | inactive: 0 | inactive: 0 | inactive: 0 | inactive: 0 | inactive: 0 | inactive: 0 | inactive: 0 | inactive: 0 | inactive: 0
8 | OCCn1cc(-c2ccc3c(c2)CC/C3=N\O)c(-c2ccncc2)n1 (10 µM) | inactive: 0 | inactive: 0 | inactive: 0 | inactive: 0 | inactive: 0 | inactive: 0 | inactive: 0 | inactive: 0 | inactive: 0 | inactive: 0 | inactive: 0 | inactive: 0 | inactive: 0 | inactive: 0 | inactive: 0 | inactive: 0 | inactive: 0 | inactive: 0 | inactive: 0 | inactive: 0
9 | COc1ncc(Cl)cc1S(=O)(=O)Nc1ccc(F)c(C#Cc2cnc(N)nc2)c1F (2.5 µM) | inactive: 0 | inactive: 0 | inactive: 0 | inactive: 0 | inactive: 0 | active: 1 | inactive: 0 | inactive: 0 | inactive: 0 | inactive: 0 | inactive: 0 | inactive: 0 | inactive: 0 | inactive: 0 | inactive: 0 | inactive: 0 | inactive: 0 | inactive: 0 | inactive: 0 | inactive: 0
10 | O=C(NCCN1CCOCC1)c1cc2c(Oc3ccc(NC(=O)C4(C(=O)Nc5ccc(F)cc5)CC4)cc3)ccnc2[nH]1 [Tyrosine kinase inhibitor] (10 µM) | inactive: 0 | inactive: 0 | inactive: 0 | inactive: 0 | inactive: 0 | inactive: 0 | inactive: 0 | inactive: 0 | inactive: 0 | inactive: 0 | inactive: 0 | inactive: 0 | inactive: 0 | inactive: 0 | inactive: 0 | inactive: 0 | inactive: 0 | inactive: 0 | inactive: 0 | inactive: 0
11 | Nc1ncnc2c1c(-c1cccc(OCc3ccccc3)c1)cn2C1CC(CN2CCC2)C1 (stereo not given) (2.5 µM) | inactive: 0 | inactive: 0 | inactive: 0 | inactive: 0 | inactive: 0 | inactive: 0 | inactive: 0 | inactive: 0 | inactive: 0 | inactive: 0 | inactive: 0 | inactive: 0 | inactive: 0 | inactive: 0 | inactive: 0 | inactive: 0 | inactive: 0 | inactive: 0 | inactive: 0 | inactive: 0
12 | O=c1cc(CN2CCOCC2)occ1OCCCCCSc1ccnc2cc(C(F)(F)F)ccc12 (10 µM) | inactive: 0 | inactive: 0 | inactive: 0 | inactive: 0 | inactive: 0 | inactive: 0 | inactive: 0 | inactive: 0 | inactive: 0 | inactive: 0 | inactive: 0 | inactive: 0 | inactive: 0 | inactive: 0 | inactive: 0 | inactive: 0 | inactive: 0 | inactive: 0 | inactive: 0 | inactive: 0
13 | NC(=O)c1ccc2[nH]ccc2c1 (10 µM) | inactive: 0 | inactive: 0 | inactive: 0 | inactive: 0 | inactive: 0 | inactive: 0 | inactive: 0 | inactive: 0 | inactive: 0 | inactive: 0 | inactive: 0 | inactive: 0 | inactive: 0 | inactive: 0 | inactive: 0 | inactive: 0 | inactive: 0 | inactive: 0 | inactive: 0 | inactive: 0
14 | O=C1N[C@@H](Cc2c[nH]c3ccccc23)C(=O)N2CCC[C@@H]12 [Brevianamide F] (10 µM) | inactive: 0 | inactive: 0 | inactive: 0 | inactive: 0 | inactive: 0 | inactive: 0 | inactive: 0 | inactive: 0 | inactive: 0 | inactive: 0 | inactive: 0 | inactive: 0 | inactive: 0 | inactive: 0 | inactive: 0 | inactive: 0 | inactive: 0 | inactive: 0 | inactive: 0 | inactive: 0
15 | Cn1nccc1Nc1nccc(-c2ccn([C@H](CO)c3ccc(Cl)c(F)c3)c(=O)c2)n1 [Ravoxertinib hydrochloride] (10 µM) | inactive: 0 | inactive: 0 | inactive: 0 | inactive: 0 | inactive: 0 | inactive: 0 | inactive: 0 | inactive: 0 | inactive: 0 | inactive: 0 | inactive: 0 | inactive: 0 | inactive: 0 | inactive: 0 | inactive: 0 | inactive: 0 | inactive: 0 | inactive: 0 | inactive: 0 | inactive: 0
16 | Cc1c(-c2c(F)cc(C(N)=O)c3[nH]c4c(c23)CC[C@H](C(C)(C)O)C4)cccc1-n1c(=O)c2cccc(F)c2n(C)c1=O (2.5 µM) | inactive: 0 | inactive: 0 | inactive: 0 | inactive: 0 | inactive: 0 | inactive: 0 | inactive: 0 | inactive: 0 | inactive: 0 | inactive: 0 | inactive: 0 | inactive: 0 | inactive: 0 | inactive: 0 | inactive: 0 | inactive: 0 | inactive: 0 | inactive: 0 | inactive: 0 | inactive: 0
17 | Cc1cc2ncc(-c3ccc(O)c(O)c3)nc2cc1C [Tyrphostin AG1433] (10 µM) | inactive: 0 | inactive: 0 | inactive: 0 | inactive: 0 | inactive: 0 | inactive: 0 | inactive: 0 | inactive: 0 | inactive: 0 | inactive: 0 | inactive: 0 | inactive: 0 | inactive: 0 | inactive: 0 | inactive: 0 | inactive: 0 | inactive: 0 | inactive: 0 | inactive: 0 | inactive: 0
18 | COc1cc(/C=C/C(=O)NCC(O)c2ccc(O)cc2)ccc1O (stereo not given) [N-Feruloyloctopamine] (2.5 µM) | inactive: 0 | inactive: 0 | inactive: 0 | inactive: 0 | inactive: 0 | inactive: 0 | inactive: 0 | inactive: 0 | inactive: 0 | inactive: 0 | inactive: 0 | inactive: 0 | inactive: 0 | inactive: 0 | inactive: 0 | inactive: 0 | inactive: 0 | inactive: 0 | inactive: 0 | inactive: 0
